Article doi:10.1101/2023.05.06.539678

Amino acid sequences for entries named in this document (tags omitted). A change or cut given only in a name is not applied to a line headed by its entry. Residues count along the entry.
UniProt Q15836: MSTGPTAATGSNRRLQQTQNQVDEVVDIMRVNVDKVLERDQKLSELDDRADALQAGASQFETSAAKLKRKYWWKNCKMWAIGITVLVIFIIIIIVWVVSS
UniProt P05556: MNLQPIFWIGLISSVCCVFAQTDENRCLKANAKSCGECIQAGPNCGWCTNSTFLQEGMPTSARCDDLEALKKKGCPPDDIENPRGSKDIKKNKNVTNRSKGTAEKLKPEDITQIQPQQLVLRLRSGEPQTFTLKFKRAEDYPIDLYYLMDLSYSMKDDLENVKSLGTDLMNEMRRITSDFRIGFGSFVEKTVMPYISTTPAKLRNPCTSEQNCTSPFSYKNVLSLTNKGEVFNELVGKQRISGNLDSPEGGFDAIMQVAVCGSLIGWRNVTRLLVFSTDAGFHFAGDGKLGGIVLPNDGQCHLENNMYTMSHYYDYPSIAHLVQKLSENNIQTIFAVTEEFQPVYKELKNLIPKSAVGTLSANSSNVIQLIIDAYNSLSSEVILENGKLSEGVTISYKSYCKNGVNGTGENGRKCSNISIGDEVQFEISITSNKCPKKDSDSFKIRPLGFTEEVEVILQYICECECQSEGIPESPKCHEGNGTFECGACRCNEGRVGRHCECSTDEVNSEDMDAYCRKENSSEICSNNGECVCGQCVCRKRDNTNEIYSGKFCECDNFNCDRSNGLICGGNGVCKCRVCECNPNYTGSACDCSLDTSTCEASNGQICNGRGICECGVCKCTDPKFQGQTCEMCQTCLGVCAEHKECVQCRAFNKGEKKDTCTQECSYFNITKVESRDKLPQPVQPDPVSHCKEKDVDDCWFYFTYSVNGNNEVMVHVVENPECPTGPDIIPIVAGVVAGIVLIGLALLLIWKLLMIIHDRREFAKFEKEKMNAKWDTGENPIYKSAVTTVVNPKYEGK
UniProt P16070, residues 21-742: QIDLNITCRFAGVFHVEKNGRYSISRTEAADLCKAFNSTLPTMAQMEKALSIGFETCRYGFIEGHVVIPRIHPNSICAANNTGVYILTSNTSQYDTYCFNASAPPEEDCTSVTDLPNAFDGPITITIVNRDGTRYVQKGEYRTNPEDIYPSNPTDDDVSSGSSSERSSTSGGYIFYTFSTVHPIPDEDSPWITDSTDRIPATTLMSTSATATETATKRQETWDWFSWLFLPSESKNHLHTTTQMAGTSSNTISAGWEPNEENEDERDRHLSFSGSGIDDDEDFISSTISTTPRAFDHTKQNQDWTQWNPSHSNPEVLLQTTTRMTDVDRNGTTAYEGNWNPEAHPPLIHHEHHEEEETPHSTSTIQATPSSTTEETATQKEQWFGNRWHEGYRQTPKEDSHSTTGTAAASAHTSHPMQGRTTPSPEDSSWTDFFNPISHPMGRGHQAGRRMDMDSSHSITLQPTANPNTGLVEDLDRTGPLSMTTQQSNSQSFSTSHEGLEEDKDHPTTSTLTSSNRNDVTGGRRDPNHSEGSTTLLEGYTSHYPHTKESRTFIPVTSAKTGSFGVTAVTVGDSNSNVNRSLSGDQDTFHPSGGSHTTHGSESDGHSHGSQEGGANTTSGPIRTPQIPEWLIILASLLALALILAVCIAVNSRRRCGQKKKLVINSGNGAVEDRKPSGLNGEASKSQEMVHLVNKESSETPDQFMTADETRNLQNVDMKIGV
UniProt Q03135: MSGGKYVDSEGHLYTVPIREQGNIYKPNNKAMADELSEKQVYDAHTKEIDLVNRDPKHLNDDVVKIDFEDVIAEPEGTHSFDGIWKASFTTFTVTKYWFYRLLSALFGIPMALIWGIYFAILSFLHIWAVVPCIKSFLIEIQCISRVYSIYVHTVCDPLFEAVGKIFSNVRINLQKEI
UniProt P11717, residues 41-2491: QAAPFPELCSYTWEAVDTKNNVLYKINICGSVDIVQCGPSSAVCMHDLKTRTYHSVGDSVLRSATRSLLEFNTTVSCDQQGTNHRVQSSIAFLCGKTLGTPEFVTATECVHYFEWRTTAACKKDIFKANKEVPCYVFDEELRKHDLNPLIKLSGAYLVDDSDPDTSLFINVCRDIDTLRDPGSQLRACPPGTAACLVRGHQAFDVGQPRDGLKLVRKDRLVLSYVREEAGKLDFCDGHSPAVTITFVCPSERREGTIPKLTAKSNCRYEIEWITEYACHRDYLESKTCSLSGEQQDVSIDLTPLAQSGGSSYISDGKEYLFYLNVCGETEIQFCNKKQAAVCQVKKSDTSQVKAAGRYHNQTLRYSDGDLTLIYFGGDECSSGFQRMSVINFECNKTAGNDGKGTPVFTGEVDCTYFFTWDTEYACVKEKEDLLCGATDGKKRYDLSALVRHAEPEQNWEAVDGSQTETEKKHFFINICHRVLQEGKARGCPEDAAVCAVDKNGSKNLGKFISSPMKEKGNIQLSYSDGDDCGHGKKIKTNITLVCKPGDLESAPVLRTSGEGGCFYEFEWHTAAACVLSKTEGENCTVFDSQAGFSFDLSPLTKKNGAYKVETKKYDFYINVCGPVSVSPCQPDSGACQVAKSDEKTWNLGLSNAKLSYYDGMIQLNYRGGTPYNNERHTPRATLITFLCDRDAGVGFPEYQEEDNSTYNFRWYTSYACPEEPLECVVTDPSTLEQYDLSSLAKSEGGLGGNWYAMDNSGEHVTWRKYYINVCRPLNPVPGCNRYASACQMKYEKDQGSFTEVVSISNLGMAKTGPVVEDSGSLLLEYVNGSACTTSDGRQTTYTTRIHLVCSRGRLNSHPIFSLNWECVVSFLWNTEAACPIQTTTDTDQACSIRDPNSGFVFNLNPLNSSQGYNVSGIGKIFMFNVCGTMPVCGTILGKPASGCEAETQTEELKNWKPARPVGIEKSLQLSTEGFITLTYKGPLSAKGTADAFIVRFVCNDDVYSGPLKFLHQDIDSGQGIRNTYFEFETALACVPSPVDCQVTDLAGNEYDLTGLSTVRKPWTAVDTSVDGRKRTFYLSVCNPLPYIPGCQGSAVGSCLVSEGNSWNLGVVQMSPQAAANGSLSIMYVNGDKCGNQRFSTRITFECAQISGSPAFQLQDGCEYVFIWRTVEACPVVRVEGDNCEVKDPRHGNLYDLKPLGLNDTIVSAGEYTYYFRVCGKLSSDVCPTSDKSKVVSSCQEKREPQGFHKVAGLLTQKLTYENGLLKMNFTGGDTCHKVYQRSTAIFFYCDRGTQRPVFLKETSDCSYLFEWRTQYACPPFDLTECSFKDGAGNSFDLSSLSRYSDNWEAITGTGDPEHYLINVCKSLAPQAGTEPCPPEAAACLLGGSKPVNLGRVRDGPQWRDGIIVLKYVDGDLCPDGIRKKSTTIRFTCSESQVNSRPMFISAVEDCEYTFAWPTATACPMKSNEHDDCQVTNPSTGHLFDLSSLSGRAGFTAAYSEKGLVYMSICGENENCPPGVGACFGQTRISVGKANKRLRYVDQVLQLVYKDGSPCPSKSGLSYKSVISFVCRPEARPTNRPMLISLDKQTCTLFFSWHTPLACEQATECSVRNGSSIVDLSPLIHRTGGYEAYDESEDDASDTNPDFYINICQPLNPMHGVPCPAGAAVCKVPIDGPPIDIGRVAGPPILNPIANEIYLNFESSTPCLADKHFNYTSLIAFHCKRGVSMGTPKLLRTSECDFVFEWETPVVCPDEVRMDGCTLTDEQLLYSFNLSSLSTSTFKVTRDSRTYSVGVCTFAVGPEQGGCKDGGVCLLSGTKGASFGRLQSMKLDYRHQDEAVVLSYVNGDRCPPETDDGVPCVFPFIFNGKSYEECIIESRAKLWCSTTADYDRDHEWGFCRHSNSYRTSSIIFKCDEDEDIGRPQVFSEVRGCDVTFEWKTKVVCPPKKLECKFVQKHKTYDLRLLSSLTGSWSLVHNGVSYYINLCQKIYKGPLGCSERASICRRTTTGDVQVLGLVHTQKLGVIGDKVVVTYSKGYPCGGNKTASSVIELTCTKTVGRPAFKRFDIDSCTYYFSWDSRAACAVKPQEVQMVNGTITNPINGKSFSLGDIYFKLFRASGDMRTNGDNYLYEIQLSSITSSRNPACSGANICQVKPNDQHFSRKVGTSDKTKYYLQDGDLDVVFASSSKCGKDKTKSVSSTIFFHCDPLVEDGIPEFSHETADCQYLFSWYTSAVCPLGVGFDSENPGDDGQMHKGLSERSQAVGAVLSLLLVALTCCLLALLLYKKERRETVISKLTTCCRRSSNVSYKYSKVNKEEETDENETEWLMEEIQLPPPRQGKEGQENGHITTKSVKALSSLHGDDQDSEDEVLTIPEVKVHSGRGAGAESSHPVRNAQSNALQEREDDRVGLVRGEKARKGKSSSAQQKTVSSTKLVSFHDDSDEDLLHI
UniProt P61011: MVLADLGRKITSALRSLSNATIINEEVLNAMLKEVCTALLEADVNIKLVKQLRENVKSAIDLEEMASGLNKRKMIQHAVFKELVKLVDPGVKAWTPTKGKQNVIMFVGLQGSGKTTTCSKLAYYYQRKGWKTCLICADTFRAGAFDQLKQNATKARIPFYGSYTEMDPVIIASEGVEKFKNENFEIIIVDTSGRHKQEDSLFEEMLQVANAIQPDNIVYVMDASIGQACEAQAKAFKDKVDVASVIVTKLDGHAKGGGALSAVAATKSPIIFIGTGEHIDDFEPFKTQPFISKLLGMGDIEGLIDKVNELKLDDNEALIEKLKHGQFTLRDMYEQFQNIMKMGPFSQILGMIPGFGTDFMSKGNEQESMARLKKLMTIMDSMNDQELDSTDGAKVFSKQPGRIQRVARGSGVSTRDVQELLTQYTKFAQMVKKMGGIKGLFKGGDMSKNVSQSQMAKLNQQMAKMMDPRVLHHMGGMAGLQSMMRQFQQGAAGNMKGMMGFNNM
UniProt Q92609: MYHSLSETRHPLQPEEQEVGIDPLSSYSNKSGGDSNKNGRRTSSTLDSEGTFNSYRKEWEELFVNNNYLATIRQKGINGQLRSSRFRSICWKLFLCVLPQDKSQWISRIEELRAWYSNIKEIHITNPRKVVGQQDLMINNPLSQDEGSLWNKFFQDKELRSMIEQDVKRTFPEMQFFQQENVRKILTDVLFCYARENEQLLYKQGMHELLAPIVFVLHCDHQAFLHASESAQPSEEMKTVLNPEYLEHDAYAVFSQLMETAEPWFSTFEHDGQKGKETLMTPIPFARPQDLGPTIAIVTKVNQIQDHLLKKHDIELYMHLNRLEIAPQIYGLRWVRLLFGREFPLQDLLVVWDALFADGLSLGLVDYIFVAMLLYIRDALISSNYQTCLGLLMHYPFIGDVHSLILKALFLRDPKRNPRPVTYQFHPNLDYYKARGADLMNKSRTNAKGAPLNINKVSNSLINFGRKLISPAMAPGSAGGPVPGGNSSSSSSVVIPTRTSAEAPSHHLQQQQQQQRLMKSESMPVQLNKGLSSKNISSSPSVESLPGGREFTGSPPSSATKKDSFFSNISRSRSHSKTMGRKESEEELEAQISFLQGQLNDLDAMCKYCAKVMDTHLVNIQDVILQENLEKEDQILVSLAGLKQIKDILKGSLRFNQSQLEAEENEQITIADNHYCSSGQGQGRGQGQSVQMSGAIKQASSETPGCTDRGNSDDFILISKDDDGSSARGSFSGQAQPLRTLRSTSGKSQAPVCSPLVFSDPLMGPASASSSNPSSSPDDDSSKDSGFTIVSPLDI
UniProt Q13596: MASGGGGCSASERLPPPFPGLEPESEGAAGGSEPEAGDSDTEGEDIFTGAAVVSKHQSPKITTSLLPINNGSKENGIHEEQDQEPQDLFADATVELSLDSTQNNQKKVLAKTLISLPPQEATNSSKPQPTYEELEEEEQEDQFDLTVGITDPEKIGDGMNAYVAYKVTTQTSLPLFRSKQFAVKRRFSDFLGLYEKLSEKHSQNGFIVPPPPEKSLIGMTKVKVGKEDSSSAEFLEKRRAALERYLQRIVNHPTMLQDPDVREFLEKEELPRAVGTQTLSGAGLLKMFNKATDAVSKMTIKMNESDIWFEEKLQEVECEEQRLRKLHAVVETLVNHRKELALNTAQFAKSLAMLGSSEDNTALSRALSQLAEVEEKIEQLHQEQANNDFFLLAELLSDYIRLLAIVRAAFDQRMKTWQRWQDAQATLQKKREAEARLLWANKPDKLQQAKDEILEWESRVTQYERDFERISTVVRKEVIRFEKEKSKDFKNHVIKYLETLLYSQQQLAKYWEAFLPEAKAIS
UniProt P63027: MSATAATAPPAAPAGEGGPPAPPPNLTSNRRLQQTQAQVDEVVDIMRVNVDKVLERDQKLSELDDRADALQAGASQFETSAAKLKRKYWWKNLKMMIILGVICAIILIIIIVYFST
UniProt Q08722, residues 19-323: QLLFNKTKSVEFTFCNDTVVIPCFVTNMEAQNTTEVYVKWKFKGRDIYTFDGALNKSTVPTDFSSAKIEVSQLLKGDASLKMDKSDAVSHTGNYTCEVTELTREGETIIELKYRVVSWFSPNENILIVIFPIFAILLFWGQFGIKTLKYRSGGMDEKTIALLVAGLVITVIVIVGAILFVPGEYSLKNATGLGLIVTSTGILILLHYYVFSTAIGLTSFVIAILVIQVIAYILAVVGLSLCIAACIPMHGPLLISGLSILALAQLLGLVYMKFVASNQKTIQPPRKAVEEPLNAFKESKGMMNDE

B1: VTI1B (protein, UniProt Q9UEU0 1-232)
chain: MASSAASSEHFEKLHEIFRGLHEDLQGVPERLLGTAGTEEKKKLIRDFDEKQQEANETLAEMEEELRYAPLSFRNPMMSKLRNYRKDLAKLHREVRSTPLTATPGGRGDMKYGIYAVENEHMNRLQSQRAMLLQGTESLNRATQSIERSHRIATETDQIGSEIIEELGEQRDQLERTKSRLVNTSENLSKSRKILRSMSRKVTTNKLLLSIIILLELAILGGLVYYKFFRSH
B2: VPS53 (protein, UniProt Q5VIR6 1-832)
chain: MMEEEELEFVEELEAVLQLTPEVQLAIEQVFPSQDPLDRADFNAVEYINTLFPTEQSLANIDEVVNKIRLKIRRLDDNIRTVVRGQTNVGQDGRQALEEAQKAIQQLFGKIKDIKDKAEKSEQMVKEITRDIKQLDHAKRHLTTSITTLNHLHMLAGGVDSLEAMTRRRQYGEVANLLQGVMNVLEHFHKYMGIPQIRQLSERVKAAQTELGQQILADFEEAFPSQGTKRPGGPSNVLRDACLVANILDPRIKQEIIKKFIKQHLSEYLVLFQENQDVAWLDKIDRRYAWIKRQLVDYEEKYGRMFPREWCMAERIAVEFCHVTRAELAKIMRTRAKEIEVKLLLFAIQRTTNFEGFLAKRFSGCTLTDGTLKKLESPPPSTNPFLEDEPTPEMEELATEKGDLDQPKKPKAPDNPFHGIVSKCFEPHLYVYIESQDKNLGELIDRFVADFKAQGPPKPNTDEGGAVLPSCADLFVYYKKCMVQCSQLSTGEPMIALTTIFQKYLREYAWKILSGNLPKTTTSSGGLTISSLLKEKEGSEVAKFTLEELCLICNILSTAEYCLATTQQLEEKLKEKVDVSLIERINLTGEMDTFSTVISSSIQLLVQDLDAACDPALTAMSKMQWQNVEHVGDQSPYVTSVILHIKQNVPIIRDNLASTRKYFTQFCVKFANSFIPKFITHLFKCKPISMVGAEQLLLDTHSLKMVLLDLPSISSQVVRKAPASYTKIVVKGMTRAEMILKVVMAPHEPLVVFVDNYIKLLTDCNTETFQKILDMKGLKRSEQSSMLELLRQRLPAPPSGAESSGSLSLTAPTPEQESSRIRKLEKLIKKRL
B3: SRPRB (protein, UniProt Q9Y5M8 1-271)
chain: MASADSRRVADGGGAGGTFQPYLDTLRQELQQTDPTLLSVVVAVLAVLLTLVFWKLIRSRRSSQRAVLLVGLCDSGKTLLFVRLLTGLYRDTQTSITDSCAVYRVNNNRGNSLTLIDLPGHESLRLQFLERFKSSARAIVFVVDSAAFQREVKDVAEFLYQVLIDSMGLKNTPSFLIACNKQDIAMAKSAKLIQQQLEKELNTLRVTRSAAPSTLDSSSTAPAQLGKKGKEFEFSQLPLKVEFLECSAKGGRGDVGSADIQDLEKWLAKIA
B4: FLOT1 (protein, UniProt O75955 1-427)
chain: MFFTCGPNEAMVVSGFCRSPPVMVAGGRVFVLPCIQQIQRISLNTLTLNVKSEKVYTRHGVPISVTGIAQVKIQGQNKEMLAAACQMFLGKTEAEIAHIALETLEGHQRAIMAHMTVEEIYKDRQKFSEQVFKVASSDLVNMGISVVSYTLKDIHDDQDYLHSLGKARTAQVQKDARIGEAEAKRDAGIREAKAKQEKVSAQYLSEIEMAKAQRDYELKKAAYDIEVNTRRAQADLAYQLQVAKTKQQIEEQRVQVQVVERAQQVAVQEQEIARREKELEARVRKPAEAERYKLERLAEAEKSQLIMQAEAEAASVRMRGEAEAFAIGARARAEAEQMAKKAEAFQLYQEAAQLDMLLEKLPQVAEEISGPLTSANKITLVSSGSGTMGAAKVTGEVLDILTRLPESVERLTGVSISQVNHKPLRTA
B5: STT3A (protein, UniProt P46977 1-705)
chain: MTKFGFLRLSYEKQDTLLKLLILSMAAVLSFSTRLFAVLRFESVIHEFDPYFNYRTTRFLAEEGFYKFHNWFDDRAWYPLGRIIGGTIYPGLMITSAAIYHVLHFFHITIDIRNVCVFLAPLFSSFTTIVTYHLTKELKDAGAGLLAAAMIAVVPGYISRSVAGSYDNEGIAIFCMLLTYYMWIKAVKTGSICWAAKCALAYFYMVSSWGGYVFLINLIPLHVLVLMLTGRFSHRIYVAYCTVYCLGTILSMQISFVGFQPVLSSEHMAAFGVFGLCQIHAFVDYLRSKLNPQQFEVLFRSVISLVGFVLLTVGALLMLTGKISPWTGRFYSLLDPSYAKNNIPIIASVSEHQPTTWSSYYFDLQLLVFMFPVGLYYCFSNLSDARIFIIMYGVTSMYFSAVMVRLMLVLAPVMCILSGIGVSQVLSTYMKNLDISRPDKKSKKQQDSTYPIKNEVASGMILVMAFFLITYTFHSTWVTSEAYSSPSIVLSARGGDGSRIIFDDFREAYYWLRHNTPEDAKVMSWWDYGYQITAMANRTILVDNNTWNNTHISRVGQAMASTEEKAYEIMRELDVSYVLVIFGGLTGYSSDDINKFLWMVRIGGSTDTGKHIKENDYYTPTGEFRVDREGSPVLLNCLMYKMCYYRFGQVYTEAKRPPGFDRVRNAEIGNKDFELDVLEEAYTTEHWLVRIYKVKDLDNRGLSRT
B6: DDOST (protein, UniProt P39656 43-456)
chain: SGPRTLVLLDNLNVRETHSLFFRSLKDRGFELTFKTADDPSLSLIKYGEFLYDNLIIFSPSVEDFGGNINVETISAFIDGGGSVLVAASSDIGDPLRELGSECGIEFDEEKTAVIDHHNYDISDLGQHTLIVADTENLLKAPTIVGKSSLNPILFRGVGMVADPDNPLVLDILTGSSTSYSFFPDKPITQYPHAVGKNTLLIAGLQARNNARVIFSGSLDFFSDSFFNSAVQKAAPGSQRYSQTGNYELAVALSRWVFKEEGVLRVGPVSHHRVGETAPPNAYTVTDLVEYSIVIQQLSNGKWVPFDGDDIQLEFVRIDPFVRTFLKKKGGKYSVQFKLPDVYGVFQFKVDYNRLGYTHLYSSTQVSVRPLQHTQYERFIPSAYPYYASAFSMMLGLFIFSIVFLHMKEKEKSD

The molecules below were run against T1, EMP3 WT tagged with Myc-glycine-serine linker-BioID2 at the C-terminal end (UniProt P54852) (assay: proximity labelling).
T1 sequence: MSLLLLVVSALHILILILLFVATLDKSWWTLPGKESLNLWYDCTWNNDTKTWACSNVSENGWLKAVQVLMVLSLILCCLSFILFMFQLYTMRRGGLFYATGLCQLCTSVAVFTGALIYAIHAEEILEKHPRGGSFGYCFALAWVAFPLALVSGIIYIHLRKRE

| Molecule | binding |
| --- | --- |
| VAMP3 (from UniProt Q15836 1-100) | binds |
| ITGB1 (from UniProt P05556 21-798) (receptor) | binds |
| CD44 (from UniProt P16070 21-742) (receptor) | binds |
| CAV1 (from UniProt Q03135 1-178) | binds |
| ITGA5 (human (endogenous in U-118)) (receptor) | binds |
| IGF2R (from UniProt P11717 41-2491) (receptor) | binds |
| SRP54 (from UniProt P61011 1-504) | binds |
| CLINT1 (from UniProt Q14677 1-625) | binds |
| TBC1D5 (from UniProt Q92609 1-795) | binds |
| EGFR (from UniProt P00533 25-1210) (receptor) | binds |
| ATP5B (from UniProt P06576 48-529) | binds |
| SNX1 (from UniProt Q13596 1-522) | binds |
| VAMP2 (from UniProt P63027 1-116) | binds |
| CD47 (from UniProt Q08722 19-323) | binds |
| LRP1 (human (endogenous in U-118)) (receptor) | binds |

Target: T1, EMP3 WT tagged with Myc-glycine-serine linker-BioID2 at the C-terminal end
Test: proximity labelling
Remark: another data set of the same source

| Molecule | binding |
| --- | --- |
| B1 | binds |
| B2 | binds |
| B3 | binds |
| B4 | binds |
| B5 | binds |
| B6 | binds |

The molecules below were run against T2, EMP3 N47A tagged with Myc-glycine-serine linker-BioID2 at the C-terminal end (UniProt P54852) (assay: proximity labelling).
T2 sequence: T1 sequence with N47A

| Molecule | binding |
| --- | --- |
| B6 | no binding |

Positions count from the first letter of the chain named. Results are given in words; binding and its absence hold for the method and conditions named. Binding seen in cells or lysates may run through a third protein. A yes stands for co-enrichment or nearness to the bait. Other partners may have been found. For some of these results: No binding means not detected with the bait. Sequences can lack the tags named with a protein.
